No constants are given. Whether binding was seen depends on the method and setting. Binding seen in cells or lysates may run through a third protein. Some binding calls cover weakened binding; strength is not graded here. Sequences can lack the tags named with a protein.
Biological target: T1, LPA3 receptor fused at the carboxyl terminus with eGFP (LPA3–eGFP construct) (human) (UniProt Q9UBY5)
T1 sequence: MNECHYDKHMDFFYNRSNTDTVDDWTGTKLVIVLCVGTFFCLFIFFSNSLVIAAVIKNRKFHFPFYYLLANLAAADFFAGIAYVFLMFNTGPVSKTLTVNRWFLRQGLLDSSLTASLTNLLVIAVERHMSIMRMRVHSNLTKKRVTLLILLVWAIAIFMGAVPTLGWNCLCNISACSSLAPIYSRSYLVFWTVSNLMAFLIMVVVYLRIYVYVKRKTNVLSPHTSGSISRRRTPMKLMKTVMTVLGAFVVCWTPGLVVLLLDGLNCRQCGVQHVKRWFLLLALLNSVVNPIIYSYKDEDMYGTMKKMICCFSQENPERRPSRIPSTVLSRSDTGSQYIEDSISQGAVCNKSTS
Test: FRET or BRET; FRET between LPA3–eGFP (donor, excited at 488 nm) and β-arrestin 2–mCherry (emission at 610 nm) in Flp-In TREx HEK293 cells, confocal microscopy; cells challenged with 1 µM LPA or 1 µM PMA for up to 60 min; FRET index normalised to time 0 as 100%

The chains behind the UniProt entries cited, without tags or fusion partners.
UniProt P32121: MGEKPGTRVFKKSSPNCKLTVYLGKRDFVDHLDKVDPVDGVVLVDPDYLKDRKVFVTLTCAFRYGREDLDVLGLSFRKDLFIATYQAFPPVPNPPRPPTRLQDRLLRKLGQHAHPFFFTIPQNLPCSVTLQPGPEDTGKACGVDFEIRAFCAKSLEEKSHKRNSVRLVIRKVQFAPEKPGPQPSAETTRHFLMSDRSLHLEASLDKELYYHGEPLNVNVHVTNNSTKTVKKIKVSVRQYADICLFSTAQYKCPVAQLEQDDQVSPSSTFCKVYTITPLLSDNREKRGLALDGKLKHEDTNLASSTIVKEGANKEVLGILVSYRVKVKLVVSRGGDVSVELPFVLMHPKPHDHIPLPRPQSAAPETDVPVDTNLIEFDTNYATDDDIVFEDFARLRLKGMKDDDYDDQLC

β-arrestin 2 mCherry-tagged (from UniProt P32121 1-409)
binding: binds

Reference: paper PMC11203643
